# Measured values taken from PubChem BioAssay AID493014 (National Center for Advancing Translational Sciences (NCATS), 2011).
# Hit rate of the full screen: of about 340,000 compounds, about 170 (0.05%) were called active. The inconclusive results got no clear call from the source; some entries with a clear call stand among them for comparison. The call rests on the fitted dose curve; in most records, active means well fitted inhibition curve with a large enough effect in the signal ratio, with a control signal flat (not every such curve was filed as active); inconclusive means small, poorly fitted or top-dose-only effect, or effect the other way, or a change in a side signal; inactive means flat fitted curve, though single readings scatter; the % refers to the signal ratio. Potencies beside an inconclusive call are fits to weak or partial responses and may not hold up.
# Assay: qHTS Assay to Find Inhibitors of Chronic Active B-Cell Receptor Signaling;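 on activity change, negative = inhibition: plate controls were basal doxycycline-induced cells for no effect and cells given 10 µM MG132 for full effect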
# Details: ABC-DLBCL IkBa-CBG/CBR reporter, luminescence ratio (green luciferase fused to IkBa over red control in TMD8 lymphoma cells), 4 h; activity change, negative = inhibition: at 46.1 µM (top of the series)
# Procedure, shortened: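 Compounds up to 46 uM were incubated four hours with TMD8 cells whose green CBG68 luciferase is fused to IkappaBalpha; red CBR luminescence normalised the signal, and concentration-effect curves were fitted to fusion, red and ratio data.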
# Potency means the concentration at half of the fitted maximal effect.
Compound,"activity change, negative = inhibition",Potency
COc1ccc2nc(N3C(=O)CNC3=S)sc2c1,inconclusive: 15.9%,–
CN(c1ccc(C(=O)NCC2CCCO2)cc1)S(C)(=O)=O (centres undefined),inconclusive: -14.3%,–
COc1cccc(-c2ncc3ccccc3c2COC(=O)c2cccc(Br)c2)c1,–,"inconclusive: 8.2 µM [falling, partial curve]"
Cc1cn2c(=O)c(C(=O)N3CCN(c4ccccc4F)CC3)cnc2s1,inactive,–
CC(C)(C)c1nnc(N/N=C/c2ccc(Br)cc2)n(N)c1=O,inconclusive: -2.48%,–
CN(Cc1ccccc1)c1nc(N)nc(Cl)c1C=O,inconclusive: 9.46%,–
COC(=O)c1ccc(CSc2nc3ccccc3c(=O)n2CC(C)C)o1,inconclusive: 4.04%,–
CC(=O)Nc1ccccc1C(=O)C(=O)Nc1cccc(Br)c1,inconclusive: 0.125%,–
O=C(O)c1ccc(N/N=C2/CCSc3ccc(F)cc32)cc1,inconclusive: 323%,–
CCOc1ccccc1NC(=O)Nc1cccc(C(C)=O)c1,inactive,–
CC(C)C(=O)NC(=S)Nc1ccccn1,inactive,–
CC1=CS(=O)(=O)CC1Sc1nc2ccccc2[nH]1 (centres undefined),inconclusive: 0.916%,–
COc1ccc(/C=C2\SC(=S)N(C(Cc3ccccc3)C(=O)O)C2=O)cc1 (centres undefined),inconclusive: -6.94%,–
Clc1ccc(-n2nnc(-c3cccnc3Cl)n2)cc1Cl,inconclusive: -10.8%,–
Cc1cnc(NC(=O)CSc2nnc(-c3ccncc3)n2C2CCCCC2)s1,inconclusive: 1.74%,–
Cn1cccc1/C=C(/C#N)C(N)=S,inactive,–
Cc1ccsc1CNc1ncnc2ccc(-c3c(C)noc3C)cc12,inactive,–
O=C(c1cccc(N2CCCC2=O)c1)N1CCN(c2ccccc2)CC1,inactive,–
CCOC(=O)c1ccc(COC(=O)CNC(=O)CNC(=O)Cc2ccccc2)cc1,inconclusive: 0.485%,–
COc1ccc(N2C(=S)NC(C)(C)CC2(C)c2ccc(OC(C)=O)cc2OC(C)=O)cc1 (centres undefined),inconclusive: -13.7%,–
Cc1nn(-c2ccccc2)c(C)c1/C=N/NC(=O)c1ccccc1O,–,"inconclusive: 22.4 µM [falling, single point]"

Compound,"activity change, negative = inhibition",Potency
O=C(c1cccs1)N1CCN(c2nc3c(F)cc(F)cc3s2)CC1,inconclusive: 5.48%,–
O=C(CSCc1ccc(F)cc1)NC1CCCC1,–,"inconclusive: 18.4 µM [rising, partial curve, poor fit]"
O=C(CCc1nnc(-c2ccc3c(c2)OCO3)o1)NC(c1cccnc1)C(F)(F)F (centres undefined),inconclusive: -1.02%,–
NS(=O)(=O)c1ccc(NNC(=O)c2ccccc2)cc1,inactive,–
O=C(N/N=C/c1cccc(OC(=O)c2ccc3c(c2)OCO3)c1)c1cncc(Br)c1,inconclusive: -18.7%,–
CC1(C)Cc2c(c(-c3ccccc3Cl)[nH]c(=O)c2C#N)CO1,inactive,–
Cc1ccc(F)cc1NC(=O)CN1C(=O)NC2(CCCc3ccccc32)C1=O (centres undefined),inconclusive: -10.6%,–
CCC(Sc1nnnn1-c1ccccc1)C(=O)Nc1nc2ccccc2s1 (centres undefined),–,"inconclusive: 18.4 µM [rising, single point]"
Cc1ccc(-n2ncc3c(N4CCC(C(N)=O)CC4)ncnc32)c(C)c1,inactive,–
COc1ccc(/C=N/NC(=O)c2ccccc2)cc1CN1CCN(c2ccc(F)cc2)CC1,–,"inconclusive: 12.6 µM [falling, partial curve, poor fit]"
Cc1cccc(NC(=O)CC2SC(=NC3CCCCC3)NC2=O)c1 (centres undefined),inconclusive: -7.12%,–
O=c1[nH]c2ccc(NCc3ccccc3OCc3ccc(Cl)cc3)cc2[nH]1,–,"inconclusive: 20 µM [falling, single point]"
CC(C)(CNC(=O)c1ccc(Br)o1)N1CCOCC1,inconclusive: 4.4%,–
CCOC(=O)CNC(=O)c1sc(NC(=O)/C=C/c2ccccc2)nc1C,–,"inconclusive: 31.6 µM [rising, single point]"
COc1cccc(-n2nnc3c(=O)n(CC(=O)Nc4ccc(C)cc4)cnc32)c1,inconclusive: 4.54%,–
COc1ccc(Br)c(C(=O)N(C)CC(=O)Nc2ccc(N3CCOCC3)cc2)c1,inactive,–
O=c1cc(/C=C/c2ccccc2)oc2c1ccc1ccccc12,inactive,–
O=C(NNS(=O)(=O)c1ccccc1)c1cnn(-c2ccccc2)c1-n1cccc1,inconclusive: 15.9%,–
CC(C)n1c2ccccc2c2cc([N+](=O)[O-])ccc21,inconclusive: 9.27%,–
Cc1ccccc1OCc1nnc(SCC(=O)Nc2ccc3c(c2)oc2ccccc23)n1C,inconclusive: 8.89%,–
Nc1cc(N)nc(SCC(=O)Nc2ccccc2)n1,inconclusive: 5.02%,–

Compound,"activity change, negative = inhibition",Potency
CC[C@@]12C(=O)N(c3cccc(Br)c3)C(=O)N1[C@H](c1ccc(Br)cc1)[C@@H]1C(=O)N(C(C)(C)C)C(=O)[C@@H]12,–,"inconclusive: 5.17 µM [rising, partial curve, poor fit]"
CC(C)Oc1ccc(CNC(=O)Cn2c(=O)c3cccn3c3cccnc32)cc1,inconclusive: 9.73%,–
Nc1nnc(-c2cccc([N+](=O)[O-])c2)o1,inactive,–
CC(=O)C1=C(C)NC(SCC(=O)c2ccccc2)=C(C#N)C1CC(C)C (centres undefined),inconclusive: 10.3%,–
Cc1ccccc1NC(=O)/C(C#N)=C\c1cc(C)n(-c2ccc(C(=O)O)cc2)c1C,inconclusive: -10.2%,–
COc1cccc(NC(=O)CSc2nccn(-c3ccc4c(c3)OCCO4)c2=O)c1,–,"inconclusive: 13 µM [falling, partial curve]"
CCOC(=O)c1c(C)n(CC(O)c2ccccc2)c2ccc(O)cc12 (centres undefined),inactive,–
CCOC(=O)C1(CCOc2ccccc2)CCN(Cc2ccc(F)c(OC)c2)CC1,inactive,–
Cc1c(CNCCc2ccc(Cl)cc2)c(C(=O)O)c(C)n1Cc1ccccc1,inconclusive: 1.68%,–
O=C(Nc1ccsc1C(=O)O)c1ccccc1Cl,inconclusive: 0.542%,–
CS(=O)(=O)NCCSc1cc(C(F)(F)F)nc2ccccc12,inconclusive: -14.9%,–
CCOC(=O)c1cnc(-n2nc(C)cc2C)nc1Oc1ccc(C(=O)OC)cc1,inconclusive: 0.462%,–
CCOC(=O)/C(C(=O)Nc1ccccc1Cl)=C1/NC(C)(C)Cc2ccccc21,inconclusive: -3.78%,–
Cc1ccc2c(Cl)cc(Cl)c(OCC(=O)N3CCCC3)c2n1,inconclusive: 4.54%,–
COc1ccccc1NC(=O)c1c(NCc2ccc(C)o2)sc2c1CCC(C)C2 (centres undefined),–,"inconclusive: 20 µM [falling, partial curve]"
COc1ccc(-n2cc3ccc([N+](=O)[O-])cc3n2)cc1,inconclusive: -18.5%,–
CC(Oc1ccc(Cl)cc1)C(=O)NNC(=S)NC(=O)c1ccco1 (centres undefined),inconclusive: -0.451%,–
Cc1cccc(C(=O)N2CCN(c3ccc([N+](=O)[O-])c(N4CCOCC4)c3)CC2)c1,inconclusive: -5.74%,–
COc1ccc(-c2nc3cc(NC(=O)Cc4ccc(OC)c(OC)c4)ccc3o2)cc1,inconclusive: -15.1%,–
CC(=O)Nc1ccc(OC(=O)c2cccs2)cc1,inconclusive: -3.99%,–
O=C1CC(Sc2cccs2)C(=O)N1c1ccccc1 (centres undefined),inactive,–

# Entries of single compounds, quoted from the list:
# Clc1ccc(-n2nnc(-c3cccnc3Cl)n2)cc1Cl in the list: activity change, negative = inhibition: inconclusive: -10.8%
# COc1cccc(-c2ncc3ccccc3c2COC(=O)c2cccc(Br)c2)c1 in the list: Potency: inconclusive: 8.2 µM [falling, partial curve]
# CCOC(=O)c1cnc(-n2nc(C)cc2C)nc1Oc1ccc(C(=O)OC)cc1 in the list: activity change, negative = inhibition: inconclusive: 0.462%
# COc1ccc(-n2cc3ccc([N+](=O)[O-])cc3n2)cc1 in the list: activity change, negative = inhibition: inconclusive: -18.5%

# The list continues:

Compound,"activity change, negative = inhibition",Potency
O=[N+]([O-])c1cccnc1NCCc1ccccc1,inconclusive: 4.15%,–
CC(C)N(C)Cc1nnnn1CC(=O)N(C)Cc1ccc(F)cc1,inactive,–
COc1ccc(/C=C/C(=O)c2ccccc2)cc1Cn1nnc2ccccc21,–,"inconclusive: 2.59 µM [falling, full curve, poor fit]"
O=C1CCCN1CCCNS(=O)(=O)c1ccc(Cl)c(C(=O)N2CCOCC2)c1,inconclusive: 0.685%,–
Cc1ccc(CNC(=O)C(=O)NCCC2CCCCN2S(=O)(=O)c2ccc(C)cc2)cc1 (centres undefined),inconclusive: 0.614%,–
CC(=O)N1c2ccc(S(=O)(=O)NCCC(=O)NCc3ccc(Cl)cc3)cc2CC1C (centres undefined),inactive,–
CCN1C(=O)C2(Nc3ccccc3-c3nc4ccccc4n32)c2cc(OC)ccc21 (centres undefined),inconclusive: 4.01%,–
O=C(CCCN1C(=O)/C(=C/c2ccccc2Cl)SC1=S)NNC(=O)c1ccccc1Cl,–,"inconclusive: 9.2 µM [falling, partial curve]"
CS(=O)(=O)CCC(C(=O)Nc1ccc2c(c1)OCO2)N1Cc2ccccc2C1=O (centres undefined),inactive,–
Cc1ccc(C)c(C(=O)Nc2ccncc2)c1,inactive,–
O=C(COC(=O)/C=C/c1ccc2c(c1)OCO2)NC1CCS(=O)(=O)C1 (centres undefined),inconclusive: -1.37%,–
COc1ccc(Cl)cc1NC(=O)CN(C)C(=O)CNC(=O)C12CC3CC(CC(C3)C1)C2,inconclusive: -24.8%,–
Cn1c(CN2CCN(CC#N)CC2)c(C#N)c2ccccc21,inconclusive: -22.4%,–
O=C(CN1c2cccc3cccc(c23)S1(=O)=O)Nc1ccccc1F,–,"inconclusive: 11.2 µM [falling, single point]"
COC(=O)c1ccc(C2C(C(=O)c3cc4ccccc4o3)=C(O)C(=O)N2CCCN(C)C)cc1 (centres undefined),–,"inconclusive: 25.1 µM [falling, single point]"
CC(C)(C)CNC(CO)C12CC3CC(CC(C3)C1)C2 (centres undefined),inactive,–
O=C(O)c1ccc(N2CCCCCC2)c(N2C(=O)c3ccccc3C2=O)c1,inconclusive: 13.8%,–
COc1ccc(NS(=O)(=O)c2cc(Br)cc3c2N(C(C)=O)CC3)cc1,–,"inconclusive: 35.5 µM [falling, single point]"
CC(C)(Oc1ccc(Cl)cc1)C(=O)O/N=C(\N)c1ccncc1,inconclusive: 0.409%,–
O=C(NCCCCCCNC(=O)c1cncc(O)c1)c1cncc(O)c1,inactive,–
CCN(CC(=O)Nc1ccc(OC)cc1)C(=O)CSCc1c(C)noc1C,inconclusive: -1.53%,–
